In the experiment the target is 1A6/DRIM (human (endogenous in U2OS)) (UniProt O75691). Briefly: co-IP; U2OS cell lysate in NET buffer (150 mM NaCl, 5 mM EDTA, 50 mM Tris-Cl pH7.5) with 1% NP-40; anti-1A6/DRIM antibody 6D9 crosslinked to protein A sepharose beads, 4 h at 4°C; endogenous proteins, Western blotting. On the technique in general: A western blot detects proteins with antibodies after separation by electrophoresis.

The chains behind the UniProt entries cited, without tags or fusion partners.
UniProt O75691: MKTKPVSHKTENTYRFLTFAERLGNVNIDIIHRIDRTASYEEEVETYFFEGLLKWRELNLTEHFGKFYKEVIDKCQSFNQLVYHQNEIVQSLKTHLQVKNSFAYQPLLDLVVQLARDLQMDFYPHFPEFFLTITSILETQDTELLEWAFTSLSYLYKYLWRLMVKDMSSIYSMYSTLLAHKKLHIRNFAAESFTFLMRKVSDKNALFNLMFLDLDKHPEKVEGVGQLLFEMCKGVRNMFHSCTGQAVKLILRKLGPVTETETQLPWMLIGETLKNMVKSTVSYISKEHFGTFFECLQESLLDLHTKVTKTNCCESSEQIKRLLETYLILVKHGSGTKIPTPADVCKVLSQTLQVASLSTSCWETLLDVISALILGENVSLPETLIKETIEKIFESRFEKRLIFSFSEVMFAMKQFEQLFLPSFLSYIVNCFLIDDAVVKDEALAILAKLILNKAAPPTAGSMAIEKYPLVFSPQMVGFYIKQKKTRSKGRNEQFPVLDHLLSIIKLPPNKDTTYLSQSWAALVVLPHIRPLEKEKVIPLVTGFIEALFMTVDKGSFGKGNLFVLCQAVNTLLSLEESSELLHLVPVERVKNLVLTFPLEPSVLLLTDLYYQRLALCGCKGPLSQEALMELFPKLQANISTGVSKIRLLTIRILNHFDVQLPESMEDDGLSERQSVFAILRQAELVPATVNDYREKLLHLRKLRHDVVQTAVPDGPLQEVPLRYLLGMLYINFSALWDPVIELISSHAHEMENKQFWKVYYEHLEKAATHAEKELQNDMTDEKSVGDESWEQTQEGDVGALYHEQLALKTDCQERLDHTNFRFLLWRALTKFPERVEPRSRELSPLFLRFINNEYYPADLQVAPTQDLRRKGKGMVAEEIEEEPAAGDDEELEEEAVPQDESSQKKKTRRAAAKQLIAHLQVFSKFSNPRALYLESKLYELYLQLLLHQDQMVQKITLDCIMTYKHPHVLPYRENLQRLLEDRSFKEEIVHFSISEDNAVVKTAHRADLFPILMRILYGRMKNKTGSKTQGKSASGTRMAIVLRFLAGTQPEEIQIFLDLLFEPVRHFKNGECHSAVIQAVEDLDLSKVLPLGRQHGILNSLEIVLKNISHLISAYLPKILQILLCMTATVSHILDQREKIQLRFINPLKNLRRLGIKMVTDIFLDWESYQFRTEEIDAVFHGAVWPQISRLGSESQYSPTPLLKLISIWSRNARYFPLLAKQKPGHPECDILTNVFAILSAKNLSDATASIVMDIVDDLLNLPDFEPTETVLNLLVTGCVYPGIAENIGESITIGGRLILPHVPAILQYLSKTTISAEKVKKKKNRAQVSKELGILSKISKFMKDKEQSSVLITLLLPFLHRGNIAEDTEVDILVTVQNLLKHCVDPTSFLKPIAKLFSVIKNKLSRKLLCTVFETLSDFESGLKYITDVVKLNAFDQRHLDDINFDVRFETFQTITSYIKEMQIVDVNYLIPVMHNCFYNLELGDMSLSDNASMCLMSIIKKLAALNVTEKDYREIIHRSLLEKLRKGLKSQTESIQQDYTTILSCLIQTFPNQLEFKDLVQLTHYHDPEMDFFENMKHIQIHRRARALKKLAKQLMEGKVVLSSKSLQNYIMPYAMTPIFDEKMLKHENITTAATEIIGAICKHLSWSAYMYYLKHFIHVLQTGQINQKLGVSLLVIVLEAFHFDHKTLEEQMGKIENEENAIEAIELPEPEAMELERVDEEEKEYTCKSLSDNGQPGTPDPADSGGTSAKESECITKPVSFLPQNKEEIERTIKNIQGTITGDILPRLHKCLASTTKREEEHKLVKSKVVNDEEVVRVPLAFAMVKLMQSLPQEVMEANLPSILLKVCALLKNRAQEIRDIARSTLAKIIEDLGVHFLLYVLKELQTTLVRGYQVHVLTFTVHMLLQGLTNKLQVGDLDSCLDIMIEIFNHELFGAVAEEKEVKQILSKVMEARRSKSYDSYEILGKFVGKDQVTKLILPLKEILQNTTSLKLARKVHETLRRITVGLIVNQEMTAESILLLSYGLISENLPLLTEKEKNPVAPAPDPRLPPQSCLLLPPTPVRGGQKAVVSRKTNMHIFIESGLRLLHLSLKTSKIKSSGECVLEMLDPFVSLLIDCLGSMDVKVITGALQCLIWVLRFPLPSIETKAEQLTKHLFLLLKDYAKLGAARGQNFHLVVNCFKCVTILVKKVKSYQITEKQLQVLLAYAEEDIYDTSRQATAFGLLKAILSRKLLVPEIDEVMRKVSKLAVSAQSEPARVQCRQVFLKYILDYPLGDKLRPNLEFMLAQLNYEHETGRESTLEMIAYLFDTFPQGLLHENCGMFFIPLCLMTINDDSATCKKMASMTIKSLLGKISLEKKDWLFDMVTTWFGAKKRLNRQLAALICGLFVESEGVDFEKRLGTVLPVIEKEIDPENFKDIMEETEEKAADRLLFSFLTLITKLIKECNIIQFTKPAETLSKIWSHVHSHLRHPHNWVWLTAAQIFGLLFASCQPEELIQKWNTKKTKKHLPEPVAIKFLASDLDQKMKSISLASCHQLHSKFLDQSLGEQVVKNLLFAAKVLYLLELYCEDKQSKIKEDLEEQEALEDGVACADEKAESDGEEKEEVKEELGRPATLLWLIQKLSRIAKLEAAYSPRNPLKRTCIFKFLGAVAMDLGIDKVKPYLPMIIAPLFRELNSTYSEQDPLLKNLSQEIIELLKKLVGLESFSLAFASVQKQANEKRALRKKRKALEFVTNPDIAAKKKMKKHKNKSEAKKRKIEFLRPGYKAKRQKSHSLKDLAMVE

No constants are given. Whether binding was seen depends on the method and setting. In cells and extracts the contact can be indirect.

The text below walks through data of article PMC2998426.

B1: TAFI110 (protein, UniProt Q15572 1-869)
chain: MDFPSSLRPALFLTGPLGLSDVPDLSFMCSWRDALTLPEAQPQNSENGALHVTKDLLWEPATPGPLPMLPPLIDPWDPGLTARDLLFRGGCRYRKRPRVVLDVTEQISRFLLDHGDVAFAPLGKLMLENFKLEGAGSRTKKKTVVSVKKLLQDLGGHQPWGCPWAYLSNRQRRFSILGGPILGTSVASHLAELLHEELVLRWEQLLLDEACTGGALAWVPGRTPQFGQLVYPAGGAQDRLHFQEVVLTPGDNPQFLGKPGRIQLQGPVRQVVTCTVQGESKALIYTFLPHWLTCYLTPGPFHPSSALLAVRSDYHCAVWKFGKQWQPTLLQAMQVEKGATGISLSPHLPGELAICSRSGAVCLWSPEDGLRQIYRDPETLVFRDSSSWRWADFTAHPRVLTVGDRTGVKMLDTQGPPGCGLLLFRLGAEASCQKGERVLLTQYLGHSSPKCLPPTLHLVCTQFSLYLVDERLPLVPMLKWNHGLPSPLLLARLLPPPRPSCVQPLLLGGQGGQLQLLHLAGEGASVPRLAGPPQSLPSRIDSLPAFPLLEPKIQWRLQERLKAPTIGLAAVVPPLPSAPTPGLVLFQLSAAGDVFYQQLRPQVDSSLRRDAGPPGDTQPDCHAPTASWTSQDTAGCSQWLKALLKVPLAPPVWTAPTFTHRQMLGSTELRREEEEGQRLGVLRKAMARGQLLLQRDLGSLPAAEPPPAPESGLEDKLSERLGEAWAGRGAAWWERQQGRTSEPGRQTRRPKRRTQLSSSFSLSGHVDPSEDTSSPHSPEWPPADALPLPPTTPPSQELTPDACAQGVPSEQRQMLRDYMAKLPPQRDTPGCATTPPHSQASSVRATRSQQHTPVLSSSQPLRKKPRMGF
For B1, the binding entry is “no binding”.
